Assay results: US11841361B2, “Microfluidic proximal tubule kidney-on-chip” (EMULATE, INC., priority 2019, dated 2023)
At least one read-out could not be matched to a standard name with certainty.

The chains behind the UniProt entries cited, without tags or fusion partners.
UniProt P08183, whole entry: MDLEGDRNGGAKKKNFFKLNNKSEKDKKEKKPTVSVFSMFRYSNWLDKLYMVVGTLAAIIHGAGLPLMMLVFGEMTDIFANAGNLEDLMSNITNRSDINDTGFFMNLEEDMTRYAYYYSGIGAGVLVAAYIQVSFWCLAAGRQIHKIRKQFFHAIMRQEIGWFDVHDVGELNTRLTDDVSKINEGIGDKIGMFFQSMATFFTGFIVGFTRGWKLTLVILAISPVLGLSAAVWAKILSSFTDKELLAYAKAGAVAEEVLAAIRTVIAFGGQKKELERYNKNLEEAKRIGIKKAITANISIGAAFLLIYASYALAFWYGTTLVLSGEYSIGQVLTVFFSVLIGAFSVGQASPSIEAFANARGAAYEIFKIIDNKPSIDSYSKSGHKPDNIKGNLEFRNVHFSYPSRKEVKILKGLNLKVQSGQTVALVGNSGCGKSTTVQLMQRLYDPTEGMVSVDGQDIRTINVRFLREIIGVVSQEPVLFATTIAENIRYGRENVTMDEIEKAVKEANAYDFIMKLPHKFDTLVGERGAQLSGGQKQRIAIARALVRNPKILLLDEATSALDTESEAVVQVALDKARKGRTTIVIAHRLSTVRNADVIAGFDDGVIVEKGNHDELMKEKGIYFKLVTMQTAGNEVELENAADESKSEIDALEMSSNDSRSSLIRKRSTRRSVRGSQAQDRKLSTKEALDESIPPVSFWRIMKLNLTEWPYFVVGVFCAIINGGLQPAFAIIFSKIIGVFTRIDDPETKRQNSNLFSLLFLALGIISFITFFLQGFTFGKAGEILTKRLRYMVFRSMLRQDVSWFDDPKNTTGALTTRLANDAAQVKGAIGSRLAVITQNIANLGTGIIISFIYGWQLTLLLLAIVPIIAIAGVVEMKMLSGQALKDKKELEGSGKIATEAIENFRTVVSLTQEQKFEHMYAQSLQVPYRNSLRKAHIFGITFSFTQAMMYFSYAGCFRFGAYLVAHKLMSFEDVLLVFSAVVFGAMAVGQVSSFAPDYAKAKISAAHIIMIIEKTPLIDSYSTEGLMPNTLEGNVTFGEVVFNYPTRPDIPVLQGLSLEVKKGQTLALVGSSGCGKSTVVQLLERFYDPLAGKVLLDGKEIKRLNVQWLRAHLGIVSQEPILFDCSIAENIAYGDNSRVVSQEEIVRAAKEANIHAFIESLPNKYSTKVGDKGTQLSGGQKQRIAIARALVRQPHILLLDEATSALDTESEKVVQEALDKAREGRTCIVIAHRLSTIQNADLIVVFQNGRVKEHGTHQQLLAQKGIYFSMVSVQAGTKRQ

Biological target: P-pg (Homo sapiens, UniProt P08183)
Test: Drug-transporter interaction (victim/perpetrator) in Kidney-Chip, P-gp
Settings: inhibitor 2 uM; digoxin 1 uM

In the case of `O[C@@H](COc1cccc2ncccc12)CN1CCN([C@@H]2c3ccccc3[C@@H]3[C@H](c4ccccc42)C3(F)F)CC1` [Zosuquidar], the “effect on efflux ratio of ^3H-digoxin” value is reported as “completely abolished”.
